Results are given in words; binding and its absence hold for the method and conditions named. Some results given as binding are weak or reduced against the parent protein; the word gives no strength.
B1: I082H08 (scFv)
scFv: EVQLVESGGGLVQPGGSLRLSCAASGFTFSDYGMHWVRQRPGKGLEWIAFIGSDGSNKYYGDTVKGRFTISRDNAKNSLYLQMNSLRAEGTAVYYCARDWDMDVWGQGTMVTVSSGGGGSGGGGSGGGGSSHVILTQPRSVSGSPGQSVTISCTGTSSDVGGYHYVSWYQQHPGKAPRLMIYEVTKRPSGVSNRFSGSKSGNTASLTISGVQAEDEADYYCSSYTSASTVIFGGGTKLTVLG
B2: I099D03 (scFv)
scFv: QVQLVQSGAEVKKPGASVRVSCKSSGYTFTNYGISWVRQAPGQGLEWMGWISNNNGKTYYAQKVQGRVTMTTDTSTSTDYMELRGLRSDDTAIYYCARDNGGGTIGFDYWGRGTLVTVSSGGGGSGGGGSGGGGSAQAVLTQPSSVSGAPGQRVTMSCTGSSSNIGAGYDVHWYQQLPGTAPKLLIYDNTNRPSGVPDRFSGSRSGTSASLAITGLQAEDEADYFCQSYDITLSAVFGTGTKVTVLG
B3: I003F12 (scFv)
scFv: QVQLLQSAAELKKPGQSLKISCKGSGFTFTTYWIGWVRQLPGKGLEWMGIIYPGDSHTTYSPSFEGHVNISVDKSINTAYLQWSSLKASDTAMYYCARHDDDVLTGYYFESWGQGTMVTVSSGGGGSGGGGSGGGGSQSVLTQPASVSGSPGQSITISCTGTSSDVGGYNYVSWYQQHPGKAPKLMIYEGSKRPSGVSNRFSGSKSGNTASLTISGLQAEDEADYYCSSYTTRSTRVFGGGTKLTVLG

By UniProt entry, the sequences of proteins in these tests, tags left out. Where a name states a change or a piece, a line headed by the entry shows the natural chain unless it says otherwise. Residues count along the entry.
UniProt Q9WU72: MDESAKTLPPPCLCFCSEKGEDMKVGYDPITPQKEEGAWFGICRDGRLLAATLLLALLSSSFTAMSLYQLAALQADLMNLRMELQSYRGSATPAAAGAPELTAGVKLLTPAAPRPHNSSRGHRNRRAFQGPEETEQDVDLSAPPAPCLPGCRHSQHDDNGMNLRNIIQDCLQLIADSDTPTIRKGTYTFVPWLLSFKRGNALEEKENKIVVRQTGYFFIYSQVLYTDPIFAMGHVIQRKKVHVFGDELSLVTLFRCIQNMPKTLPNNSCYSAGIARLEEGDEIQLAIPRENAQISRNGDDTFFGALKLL
mouse B Lymphocyte Stimulator: residues 127-309 of Q9WU72

Columns and labels:
[1] = target: membrane-bound B Lymphocyte Stimulator on P388 plasma membranes (mouse) (mouse) (UniProt Q9WU72); assay: phage ELISA
[2] = target: mouse B Lymphocyte Stimulator (mouse) (UniProt Q9WU72); assay: phage ELISA

Binder | binding [1] | binding [2]
B1 | binds | –
B2 | binds | –
B3 | – | binds

Reference: patent publication US20100111953A1
